From the supplement of paper PMC12819154, “High-throughput peptide-centric local stability assay extends protein–ligand identification to membrane proteins, tissues and bacteria” (Nature Structural & Molecular Biology, 2025) come the findings set out here.

Chains of the proteins cited; added tags and fusions are not shown. Lines headed by an entry give the natural chain unless they say otherwise; changes in a name come on top.
UniProt A2A4P0: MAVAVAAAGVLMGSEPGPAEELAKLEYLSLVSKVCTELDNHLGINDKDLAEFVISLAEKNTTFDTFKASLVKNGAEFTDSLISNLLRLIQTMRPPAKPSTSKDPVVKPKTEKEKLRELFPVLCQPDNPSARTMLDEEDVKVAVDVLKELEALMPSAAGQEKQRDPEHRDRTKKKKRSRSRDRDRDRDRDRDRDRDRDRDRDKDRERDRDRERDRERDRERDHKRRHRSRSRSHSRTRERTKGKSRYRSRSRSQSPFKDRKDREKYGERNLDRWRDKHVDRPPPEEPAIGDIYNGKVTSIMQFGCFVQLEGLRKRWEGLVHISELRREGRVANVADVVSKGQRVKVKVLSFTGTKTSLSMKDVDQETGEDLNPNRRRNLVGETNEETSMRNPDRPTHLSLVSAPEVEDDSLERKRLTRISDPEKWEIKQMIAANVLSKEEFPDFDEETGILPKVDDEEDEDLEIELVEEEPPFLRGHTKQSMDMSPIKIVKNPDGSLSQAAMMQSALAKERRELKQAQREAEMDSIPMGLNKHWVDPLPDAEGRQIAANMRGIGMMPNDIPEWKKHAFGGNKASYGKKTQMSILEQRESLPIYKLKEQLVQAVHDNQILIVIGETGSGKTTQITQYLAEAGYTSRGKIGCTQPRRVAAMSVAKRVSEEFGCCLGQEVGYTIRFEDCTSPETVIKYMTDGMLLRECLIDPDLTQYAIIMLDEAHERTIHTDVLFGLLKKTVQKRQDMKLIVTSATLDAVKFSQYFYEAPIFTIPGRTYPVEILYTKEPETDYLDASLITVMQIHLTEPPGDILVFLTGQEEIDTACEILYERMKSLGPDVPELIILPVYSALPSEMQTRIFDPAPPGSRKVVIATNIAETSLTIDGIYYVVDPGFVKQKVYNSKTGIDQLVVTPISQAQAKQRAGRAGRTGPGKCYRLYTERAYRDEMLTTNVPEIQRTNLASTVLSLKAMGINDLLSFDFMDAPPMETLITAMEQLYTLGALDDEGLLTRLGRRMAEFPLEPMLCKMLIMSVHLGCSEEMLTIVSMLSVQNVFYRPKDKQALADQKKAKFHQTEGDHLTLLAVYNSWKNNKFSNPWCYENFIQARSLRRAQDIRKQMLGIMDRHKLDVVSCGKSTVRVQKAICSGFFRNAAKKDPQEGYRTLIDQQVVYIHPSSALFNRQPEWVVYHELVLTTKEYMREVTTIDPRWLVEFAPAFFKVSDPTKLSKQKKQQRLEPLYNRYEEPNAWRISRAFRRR
UniProt A2AG50: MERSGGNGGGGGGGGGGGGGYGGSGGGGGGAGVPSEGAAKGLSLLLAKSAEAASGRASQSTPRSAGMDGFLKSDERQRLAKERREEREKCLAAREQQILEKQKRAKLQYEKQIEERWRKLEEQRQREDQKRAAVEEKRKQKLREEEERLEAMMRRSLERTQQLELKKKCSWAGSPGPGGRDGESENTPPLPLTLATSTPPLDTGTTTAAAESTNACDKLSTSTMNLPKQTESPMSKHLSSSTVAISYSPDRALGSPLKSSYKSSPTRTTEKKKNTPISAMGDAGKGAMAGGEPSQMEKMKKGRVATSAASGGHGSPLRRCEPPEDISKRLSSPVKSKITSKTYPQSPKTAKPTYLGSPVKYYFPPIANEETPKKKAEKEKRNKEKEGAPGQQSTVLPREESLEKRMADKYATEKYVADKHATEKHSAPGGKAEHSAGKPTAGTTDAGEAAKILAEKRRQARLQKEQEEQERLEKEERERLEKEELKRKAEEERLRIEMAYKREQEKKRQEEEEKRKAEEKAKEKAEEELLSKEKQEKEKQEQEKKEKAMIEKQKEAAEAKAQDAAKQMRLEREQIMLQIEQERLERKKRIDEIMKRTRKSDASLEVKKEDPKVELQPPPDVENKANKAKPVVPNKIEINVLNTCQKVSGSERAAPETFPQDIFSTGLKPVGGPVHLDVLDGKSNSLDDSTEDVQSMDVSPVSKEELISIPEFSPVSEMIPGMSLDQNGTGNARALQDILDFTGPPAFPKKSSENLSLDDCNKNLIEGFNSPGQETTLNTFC

The other results are listed elsewhere or left out. Small differences around the control level are noise.

Compound in the assay: CN[C@@H]1C[C@H]2O[C@@](C)([C@@H]1OC)n1c3ccccc3c3c4c(c5c6ccccc6n2c5c31)C(=O)NC4 [staurosporine]
In words: log2 fold change of tryptic peptide abundance, ligand vs vehicle (limited proteolysis) (log2 ratio); higher = more trypsin-susceptible (destabilized). The settings on record: ligand concentration: 20 uM; sample: mouse liver crude lysate; replicate design: treated separately.

Regarding “UniProt A2A4P0 (peptide sequence: VAAMSVAKR, peptide start residue: 645)”, the log2 fold change came to 0.422. Consider “UniProt A2AG50 (peptide sequence: KSDASLEVK, peptide start residue: 599)”, for which the log2 fold change was -0.178. As to “UniProt A2ASS6 (peptide sequence: EPAAPPQVPEAPK, peptide start residue: 10224)”, the log2 fold change is 0.133.
